Measurements reported in PubChem BioAssay AID1259260 (Sanger Institute, 2017)
Screen: 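Essential and drug-synergistic kinases in a colorectal cancer cell line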 (primary screen). System: human NCI-H716 colorectal cancer cells. Knock-down reagent: siRNA pool against human genes. Conditions: anchor drugs BYL719 (alpelisib) 1 µM, cetuximab 5 µg/ml or trametinib 10 nM, each at a dose chosen to harm viability only mildly; DMSO vehicle for the knock-down-alone arm. Measurement: 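Replicate-averaged viability relative to a non-targeting pool, a robust z-score for knock-down alone, and a synergy score per anchor drug versus each agent alone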. Reading the numbers: viability robust z-score, siRNA alone: higher = more surviving cells; below -3 called essential. Hit rule: 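a knock-down counts as essential if its no-drug robust z-score is lower than -3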. Calls: active = essential (knock-down alone lowers viability); inactive = no essential effect.
This is one part, drawn at random, of 794 reagents tested. 13 of them (1.6%) were called active. 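Calls reflect only knock-down without drug; synergy above 0.15 was grouped apart and does not change the call.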 Further read-outs or replicates are left out here. Not stated in the record: the amount of reagent, the time to read-out.

{"Gene": "MAP3K7 (GeneID 6885)", "viability robust z-score, siRNA alone": -0.0179, "Outcome": "inactive"}
{"Gene": "ERBB3 (GeneID 2065)", "viability robust z-score, siRNA alone": -0.812, "Outcome": "inactive"}
{"Gene": "CSNK2B (GeneID 1460)", "viability robust z-score, siRNA alone": 0.602, "Outcome": "inactive"}
{"Gene": "CDK1 (GeneID 983)", "viability robust z-score, siRNA alone": 0.602, "Outcome": "inactive"}
{"Gene": "PNCK (GeneID 139728)", "viability robust z-score, siRNA alone": 0.00868, "Outcome": "inactive"}
{"Gene": "RBM10 (GeneID 8241)", "viability robust z-score, siRNA alone": 0.602, "Outcome": "inactive"}
{"Gene": "PSKH2 (GeneID 85481)", "viability robust z-score, siRNA alone": 0.602, "Outcome": "inactive"}
{"Gene": "STRADB (GeneID 55437)", "viability robust z-score, siRNA alone": 0.602, "Outcome": "inactive"}
{"Gene": "ATP23 (GeneID 91419)", "viability robust z-score, siRNA alone": 0.602, "Outcome": "inactive"}
{"Gene": "STK25 (GeneID 10494)", "viability robust z-score, siRNA alone": -0.0837, "Outcome": "inactive"}
{"Gene": "MAPKAPK2 (GeneID 9261)", "viability robust z-score, siRNA alone": 0.602, "Outcome": "inactive"}
{"Gene": "SNRK (GeneID 54861)", "viability robust z-score, siRNA alone": -0.897, "Outcome": "inactive"}
{"Gene": "DDR1 (GeneID 780)", "viability robust z-score, siRNA alone": -0.332, "Outcome": "inactive"}
{"Gene": "MAGI1 (GeneID 9223)", "viability robust z-score, siRNA alone": -0.423, "Outcome": "inactive"}
{"Gene": "PTPN11 (GeneID 5781)", "viability robust z-score, siRNA alone": 0.367, "Outcome": "inactive"}
{"Gene": "PRKACG (GeneID 5568)", "viability robust z-score, siRNA alone": 0.602, "Outcome": "inactive"}
{"Gene": "JAK1 (GeneID 3716)", "viability robust z-score, siRNA alone": 0.602, "Outcome": "inactive"}

Look-ups from the list.
For “viability robust z-score, siRNA alone”, CDK1 (GeneID 983) is entered as 0.602
Under “viability robust z-score, siRNA alone”, SNRK (GeneID 54861) reads -0.897
RBM10 (GeneID 8241), viability robust z-score, siRNA alone = 0.602

The results go on.
{"Gene": "PIK3C2B (GeneID 5287)", "viability robust z-score, siRNA alone": 0.168, "Outcome": "inactive"}
{"Gene": "RPS6KA6 (GeneID 27330)", "viability robust z-score, siRNA alone": 0.602, "Outcome": "inactive"}
{"Gene": "TTBK2 (GeneID 146057)", "viability robust z-score, siRNA alone": -1.75, "Outcome": "inactive"}
{"Gene": "MAPK7 (GeneID 5598)", "viability robust z-score, siRNA alone": 0.602, "Outcome": "inactive"}
{"Gene": "PRKCD (GeneID 5580)", "viability robust z-score, siRNA alone": -4.06, "Outcome": "active"}
{"Gene": "PRKD3 (GeneID 23683)", "viability robust z-score, siRNA alone": -0.279, "Outcome": "inactive"}
{"Gene": "TRIB1 (GeneID 10221)", "viability robust z-score, siRNA alone": -1.31, "Outcome": "inactive"}
{"Gene": "PI4K2A (GeneID 55361)", "viability robust z-score, siRNA alone": 0.602, "Outcome": "inactive"}
{"Gene": "CUL1 (GeneID 8454)", "viability robust z-score, siRNA alone": -0.454, "Outcome": "inactive"}
{"Gene": "PKMYT1 (GeneID 9088)", "viability robust z-score, siRNA alone": 0.182, "Outcome": "inactive"}
{"Gene": "PXK (GeneID 54899)", "viability robust z-score, siRNA alone": -1.11, "Outcome": "inactive"}
